Results are given in words; binding and its absence hold for the method and conditions named. Binding seen in cells or lysates may run through a third protein. Some entries that bind do so weakly or less than the wild type.
Biological target: T1, endogenous mouse GCNA in adult testis (mouse (endogenous in testis))
T1 sequence: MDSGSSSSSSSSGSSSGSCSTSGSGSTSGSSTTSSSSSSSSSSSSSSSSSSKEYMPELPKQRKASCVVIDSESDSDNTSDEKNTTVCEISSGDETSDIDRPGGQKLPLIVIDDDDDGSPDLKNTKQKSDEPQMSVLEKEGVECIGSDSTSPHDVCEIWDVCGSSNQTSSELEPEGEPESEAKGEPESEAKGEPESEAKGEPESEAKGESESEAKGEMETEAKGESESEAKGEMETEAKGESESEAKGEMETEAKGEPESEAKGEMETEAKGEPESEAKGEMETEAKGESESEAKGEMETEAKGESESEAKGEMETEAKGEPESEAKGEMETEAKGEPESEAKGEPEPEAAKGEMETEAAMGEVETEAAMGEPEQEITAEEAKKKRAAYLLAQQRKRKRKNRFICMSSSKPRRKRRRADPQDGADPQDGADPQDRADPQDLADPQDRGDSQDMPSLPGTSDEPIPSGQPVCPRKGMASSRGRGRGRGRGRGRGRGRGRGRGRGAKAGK
Experiment: proximity ligation; Duolink PLA on formalin-fixed adult mouse testis sections, wild-type against Gcna-/Y; anti-GCNA (Tra98) with anti-PCNA or anti-histone H3

The chains behind the UniProt entries cited, without tags or fusion partners.
UniProt P17918: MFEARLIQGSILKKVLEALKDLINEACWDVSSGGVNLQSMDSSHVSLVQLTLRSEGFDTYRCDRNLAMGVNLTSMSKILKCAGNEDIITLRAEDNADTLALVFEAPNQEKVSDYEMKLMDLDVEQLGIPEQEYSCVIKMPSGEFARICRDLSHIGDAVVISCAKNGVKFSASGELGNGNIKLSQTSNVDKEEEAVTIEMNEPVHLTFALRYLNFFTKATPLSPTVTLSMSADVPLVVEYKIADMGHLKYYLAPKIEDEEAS

PCNA, endogenous in mouse testis (from UniProt P17918 1-261)
binding: binds

— paper PMC10250205
